± gives the standard deviation of the averaged measurements. The list shows a part of the results, in another mix than the full data. Most entries show no effect beyond the scatter of the controls.
Compound: Nc1ncnc2c1ncn2[C@@H]1O[C@H](COP(=O)(O)OP(=O)(O)OP(=O)(O)O)[C@@H](O)[C@H]1O [adenosine triphosphate]
Assay: NP40-soluble protein abundance relative to vehicle (solubility fold change) (ratio); higher = more soluble protein in presence of ATP
Procedure, shortened: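 Data come from three independent experiments in which Dounce-homogenised Jurkat crude lysate was treated at eight concentrations from 0.1 to 10 mM. Treatment ran 10 min at room temperature and then 3 min at 37 °C, after which 0.8% NP40 and benzonase were added for 60 min at 4 °C before ultracentrifugation. The supernatant underwent TMT labelling and LC-MS/MS, and vsn-normalised intensities were expressed as fold change against the detergent-processed vehicle in each replicate.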

Amino acid sequences for entries named in this document (tags omitted). A change or cut given only in a name is not applied to a line headed by its entry.
UniProt Q5TC12: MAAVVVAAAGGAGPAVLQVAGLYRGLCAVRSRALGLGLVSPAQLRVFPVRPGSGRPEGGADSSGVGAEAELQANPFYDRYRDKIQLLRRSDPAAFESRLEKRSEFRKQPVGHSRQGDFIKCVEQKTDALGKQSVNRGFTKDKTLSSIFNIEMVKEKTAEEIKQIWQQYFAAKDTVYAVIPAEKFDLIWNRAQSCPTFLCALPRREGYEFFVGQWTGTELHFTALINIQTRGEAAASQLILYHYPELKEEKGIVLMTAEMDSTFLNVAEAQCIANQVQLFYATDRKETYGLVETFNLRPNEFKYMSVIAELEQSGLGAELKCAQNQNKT
UniProt O95232: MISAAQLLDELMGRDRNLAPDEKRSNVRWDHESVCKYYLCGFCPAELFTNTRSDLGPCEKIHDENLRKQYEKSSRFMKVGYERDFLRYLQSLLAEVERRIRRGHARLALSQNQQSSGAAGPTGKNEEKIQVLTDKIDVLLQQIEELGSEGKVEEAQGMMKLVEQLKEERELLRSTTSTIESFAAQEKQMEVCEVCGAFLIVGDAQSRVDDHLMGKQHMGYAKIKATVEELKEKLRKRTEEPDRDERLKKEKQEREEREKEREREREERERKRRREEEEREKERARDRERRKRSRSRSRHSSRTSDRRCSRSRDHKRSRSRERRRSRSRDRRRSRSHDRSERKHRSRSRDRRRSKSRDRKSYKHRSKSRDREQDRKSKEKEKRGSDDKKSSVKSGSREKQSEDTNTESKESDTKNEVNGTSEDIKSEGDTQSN
UniProt P38159: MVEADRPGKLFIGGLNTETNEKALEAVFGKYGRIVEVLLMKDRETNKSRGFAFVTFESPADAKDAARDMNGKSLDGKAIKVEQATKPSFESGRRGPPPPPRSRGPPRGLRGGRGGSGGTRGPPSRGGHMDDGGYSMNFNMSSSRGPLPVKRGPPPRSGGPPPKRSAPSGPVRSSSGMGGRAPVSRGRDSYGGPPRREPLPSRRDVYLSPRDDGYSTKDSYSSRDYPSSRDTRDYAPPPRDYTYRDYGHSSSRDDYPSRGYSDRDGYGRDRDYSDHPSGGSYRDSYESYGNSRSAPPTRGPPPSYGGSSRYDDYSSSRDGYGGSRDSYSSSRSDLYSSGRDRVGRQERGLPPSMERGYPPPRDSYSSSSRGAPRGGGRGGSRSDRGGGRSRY
UniProt Q8WYJ6: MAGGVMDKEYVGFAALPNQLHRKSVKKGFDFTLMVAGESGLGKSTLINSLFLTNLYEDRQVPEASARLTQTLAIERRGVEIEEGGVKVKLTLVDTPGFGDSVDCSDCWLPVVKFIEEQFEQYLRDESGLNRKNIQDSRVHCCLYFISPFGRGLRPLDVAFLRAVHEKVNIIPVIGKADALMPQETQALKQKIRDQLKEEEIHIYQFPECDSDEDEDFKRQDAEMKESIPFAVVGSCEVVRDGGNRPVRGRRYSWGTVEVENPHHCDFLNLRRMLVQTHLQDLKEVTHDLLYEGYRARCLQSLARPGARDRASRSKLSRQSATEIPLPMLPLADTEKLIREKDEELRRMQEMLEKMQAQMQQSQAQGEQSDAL
UniProt Q9NWH9: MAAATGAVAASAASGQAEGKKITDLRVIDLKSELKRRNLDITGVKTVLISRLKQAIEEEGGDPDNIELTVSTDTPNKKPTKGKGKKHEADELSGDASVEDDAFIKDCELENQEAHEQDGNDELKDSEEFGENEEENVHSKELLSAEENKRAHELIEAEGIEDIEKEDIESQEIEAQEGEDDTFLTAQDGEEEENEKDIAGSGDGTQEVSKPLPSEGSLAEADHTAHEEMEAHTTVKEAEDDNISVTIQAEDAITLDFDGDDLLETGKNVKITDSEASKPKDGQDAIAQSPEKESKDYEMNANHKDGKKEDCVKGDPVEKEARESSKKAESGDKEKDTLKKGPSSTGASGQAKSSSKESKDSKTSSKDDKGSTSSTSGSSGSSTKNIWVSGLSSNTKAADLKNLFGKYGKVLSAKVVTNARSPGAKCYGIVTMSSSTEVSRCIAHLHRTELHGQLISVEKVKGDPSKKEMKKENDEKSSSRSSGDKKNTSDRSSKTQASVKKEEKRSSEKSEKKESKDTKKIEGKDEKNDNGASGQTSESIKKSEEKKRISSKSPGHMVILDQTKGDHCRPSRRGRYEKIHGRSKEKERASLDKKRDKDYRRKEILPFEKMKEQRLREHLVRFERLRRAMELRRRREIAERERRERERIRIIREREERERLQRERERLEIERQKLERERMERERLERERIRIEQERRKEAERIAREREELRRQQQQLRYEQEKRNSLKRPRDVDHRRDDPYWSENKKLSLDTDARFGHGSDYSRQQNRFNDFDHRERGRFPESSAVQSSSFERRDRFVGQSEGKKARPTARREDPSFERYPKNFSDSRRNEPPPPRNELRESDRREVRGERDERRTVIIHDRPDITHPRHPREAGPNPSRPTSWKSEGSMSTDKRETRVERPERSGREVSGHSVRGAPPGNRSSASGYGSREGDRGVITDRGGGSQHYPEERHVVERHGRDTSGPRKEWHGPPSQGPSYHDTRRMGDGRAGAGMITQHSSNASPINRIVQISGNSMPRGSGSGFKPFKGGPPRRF
UniProt Q96F10: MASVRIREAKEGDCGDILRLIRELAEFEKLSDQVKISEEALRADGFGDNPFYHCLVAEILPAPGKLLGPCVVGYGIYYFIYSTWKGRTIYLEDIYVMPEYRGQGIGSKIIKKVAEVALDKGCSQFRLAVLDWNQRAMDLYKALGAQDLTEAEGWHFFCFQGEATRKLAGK
UniProt Q96GD4, whole entry: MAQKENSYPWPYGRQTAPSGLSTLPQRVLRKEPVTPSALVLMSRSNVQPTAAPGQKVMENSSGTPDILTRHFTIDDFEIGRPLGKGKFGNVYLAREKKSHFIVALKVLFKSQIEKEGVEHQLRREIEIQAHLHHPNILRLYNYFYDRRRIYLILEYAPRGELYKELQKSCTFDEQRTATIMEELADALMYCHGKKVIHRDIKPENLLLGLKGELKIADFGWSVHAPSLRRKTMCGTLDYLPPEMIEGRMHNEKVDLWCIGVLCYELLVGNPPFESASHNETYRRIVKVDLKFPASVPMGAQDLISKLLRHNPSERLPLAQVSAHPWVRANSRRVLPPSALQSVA
UniProt Q8IVV7: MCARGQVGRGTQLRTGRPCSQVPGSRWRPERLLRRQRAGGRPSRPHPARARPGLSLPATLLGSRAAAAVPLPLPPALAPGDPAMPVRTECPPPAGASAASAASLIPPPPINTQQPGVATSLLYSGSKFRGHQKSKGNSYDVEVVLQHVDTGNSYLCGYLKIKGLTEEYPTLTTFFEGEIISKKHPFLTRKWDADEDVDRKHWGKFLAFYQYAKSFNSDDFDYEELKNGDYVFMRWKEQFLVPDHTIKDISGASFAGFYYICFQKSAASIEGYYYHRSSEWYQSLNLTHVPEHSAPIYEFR
UniProt Q03252: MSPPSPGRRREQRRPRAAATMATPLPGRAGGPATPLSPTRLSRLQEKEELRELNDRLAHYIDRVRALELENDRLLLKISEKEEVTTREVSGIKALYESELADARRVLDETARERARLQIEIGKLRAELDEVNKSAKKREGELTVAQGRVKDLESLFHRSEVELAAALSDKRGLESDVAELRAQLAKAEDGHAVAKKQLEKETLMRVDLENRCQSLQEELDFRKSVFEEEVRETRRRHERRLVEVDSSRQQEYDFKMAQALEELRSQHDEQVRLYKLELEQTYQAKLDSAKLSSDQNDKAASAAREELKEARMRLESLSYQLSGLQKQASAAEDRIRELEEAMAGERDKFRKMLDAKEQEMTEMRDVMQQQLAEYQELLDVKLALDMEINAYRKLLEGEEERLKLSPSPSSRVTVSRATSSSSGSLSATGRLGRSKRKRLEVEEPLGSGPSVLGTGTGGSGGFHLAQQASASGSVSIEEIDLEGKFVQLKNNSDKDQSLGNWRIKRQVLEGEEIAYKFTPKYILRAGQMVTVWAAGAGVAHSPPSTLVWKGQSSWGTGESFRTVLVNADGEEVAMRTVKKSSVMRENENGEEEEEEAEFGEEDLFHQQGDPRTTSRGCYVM
UniProt Q9BZG8: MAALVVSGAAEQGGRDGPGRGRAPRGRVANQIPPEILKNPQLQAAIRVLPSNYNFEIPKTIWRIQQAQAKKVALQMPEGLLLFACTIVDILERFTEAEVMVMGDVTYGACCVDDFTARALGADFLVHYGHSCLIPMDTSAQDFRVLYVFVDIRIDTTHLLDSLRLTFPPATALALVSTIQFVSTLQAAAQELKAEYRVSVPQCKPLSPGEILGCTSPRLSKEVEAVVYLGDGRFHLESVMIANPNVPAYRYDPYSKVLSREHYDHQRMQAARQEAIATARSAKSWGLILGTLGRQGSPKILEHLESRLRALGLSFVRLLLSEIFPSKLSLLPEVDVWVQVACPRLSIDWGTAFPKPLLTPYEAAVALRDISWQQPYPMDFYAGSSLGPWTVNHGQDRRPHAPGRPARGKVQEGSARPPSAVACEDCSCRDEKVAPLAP
UniProt Q969X6: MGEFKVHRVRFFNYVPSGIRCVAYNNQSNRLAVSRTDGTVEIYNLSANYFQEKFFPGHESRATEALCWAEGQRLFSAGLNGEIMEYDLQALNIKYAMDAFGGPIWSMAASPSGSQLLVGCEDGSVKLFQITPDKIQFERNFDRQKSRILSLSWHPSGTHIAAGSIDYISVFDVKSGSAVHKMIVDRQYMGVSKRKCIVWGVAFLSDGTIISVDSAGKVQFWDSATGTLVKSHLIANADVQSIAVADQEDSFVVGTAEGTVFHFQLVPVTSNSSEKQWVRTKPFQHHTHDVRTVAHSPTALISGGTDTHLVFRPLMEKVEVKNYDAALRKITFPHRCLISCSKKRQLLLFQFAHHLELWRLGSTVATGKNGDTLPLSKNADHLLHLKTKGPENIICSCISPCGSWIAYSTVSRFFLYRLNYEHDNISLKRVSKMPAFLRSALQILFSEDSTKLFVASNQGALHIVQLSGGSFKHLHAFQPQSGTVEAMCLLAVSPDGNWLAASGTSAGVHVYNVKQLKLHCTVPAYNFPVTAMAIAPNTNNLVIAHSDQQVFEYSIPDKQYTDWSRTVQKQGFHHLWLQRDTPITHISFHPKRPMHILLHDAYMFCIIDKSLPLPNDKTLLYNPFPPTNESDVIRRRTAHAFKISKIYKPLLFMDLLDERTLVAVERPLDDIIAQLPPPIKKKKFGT
UniProt Q9NUU7: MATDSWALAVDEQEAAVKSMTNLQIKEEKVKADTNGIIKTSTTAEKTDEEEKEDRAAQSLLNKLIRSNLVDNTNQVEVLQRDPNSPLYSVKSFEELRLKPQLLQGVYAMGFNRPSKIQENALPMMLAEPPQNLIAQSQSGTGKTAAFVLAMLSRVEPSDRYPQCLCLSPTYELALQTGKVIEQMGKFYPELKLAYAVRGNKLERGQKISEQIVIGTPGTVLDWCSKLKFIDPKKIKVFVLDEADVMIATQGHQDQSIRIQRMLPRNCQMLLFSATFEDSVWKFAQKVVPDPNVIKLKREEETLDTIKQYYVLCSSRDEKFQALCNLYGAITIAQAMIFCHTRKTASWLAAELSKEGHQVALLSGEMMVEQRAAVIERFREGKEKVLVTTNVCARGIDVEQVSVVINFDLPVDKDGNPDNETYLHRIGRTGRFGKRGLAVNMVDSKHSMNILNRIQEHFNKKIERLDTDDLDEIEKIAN
UniProt Q9BRQ6: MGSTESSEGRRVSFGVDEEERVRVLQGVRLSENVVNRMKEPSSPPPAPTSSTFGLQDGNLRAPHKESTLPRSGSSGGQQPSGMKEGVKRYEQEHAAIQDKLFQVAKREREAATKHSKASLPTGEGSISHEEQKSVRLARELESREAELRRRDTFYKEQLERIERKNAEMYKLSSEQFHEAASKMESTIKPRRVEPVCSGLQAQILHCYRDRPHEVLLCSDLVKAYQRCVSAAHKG
UniProt O43169: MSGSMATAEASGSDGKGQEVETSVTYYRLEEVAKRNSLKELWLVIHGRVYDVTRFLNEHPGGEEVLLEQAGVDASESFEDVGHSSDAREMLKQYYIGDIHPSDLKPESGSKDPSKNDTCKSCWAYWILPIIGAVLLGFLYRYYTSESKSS
UniProt Q9H9Q2: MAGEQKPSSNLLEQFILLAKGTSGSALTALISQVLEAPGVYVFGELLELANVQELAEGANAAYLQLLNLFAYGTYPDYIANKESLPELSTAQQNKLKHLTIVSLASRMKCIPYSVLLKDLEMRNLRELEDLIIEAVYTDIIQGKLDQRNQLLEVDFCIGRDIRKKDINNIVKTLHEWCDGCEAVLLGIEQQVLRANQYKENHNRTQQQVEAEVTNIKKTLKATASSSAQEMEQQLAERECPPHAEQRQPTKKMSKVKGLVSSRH
UniProt Q8WV92, whole entry: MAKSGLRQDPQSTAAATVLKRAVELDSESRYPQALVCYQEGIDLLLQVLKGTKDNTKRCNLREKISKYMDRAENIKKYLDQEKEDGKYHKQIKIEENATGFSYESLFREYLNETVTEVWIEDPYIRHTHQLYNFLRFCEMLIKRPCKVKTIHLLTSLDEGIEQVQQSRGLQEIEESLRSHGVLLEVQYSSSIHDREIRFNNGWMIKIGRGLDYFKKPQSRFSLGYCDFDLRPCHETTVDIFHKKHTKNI

Target | NP40-soluble protein abundance (concentration: 0.1mM) | NP40-soluble protein abundance (concentration: 0.5mM) | NP40-soluble protein abundance (concentration: 1mM) | NP40-soluble protein abundance (concentration: 2mM) | NP40-soluble protein abundance (concentration: 4mM) | NP40-soluble protein abundance (concentration: 6mM) | NP40-soluble protein abundance (concentration: 8mM) | NP40-soluble protein abundance (concentration: 10mM)
I3L448 and related entries (UniProt Q5TC12) | 1.01 ± 0.05 | 0.989 ± 0.032 | 0.982 ± 0.049 | 0.985 ± 0.028 | 0.983 ± 0.046 | 0.998 ± 0.04 | 0.96 ± 0.04 | 0.952 ± 0.022
J3KPP4 and related entries (UniProt O95232) | 1.22 ± 0.065 | 1.98 ± 0.17 | 2.04 ± 0.11 | 2.06 ± 0.14 | 2.12 ± 0.1 | 2.32 ± 0.14 | 2.27 ± 0.13 | 2.32 ± 0.18
H0Y6E7 and related entries (UniProt P38159) | 1 ± 0.022 | 1.08 ± 0.018 | 1.13 ± 0.068 | 1.22 ± 0.042 | 1.34 ± 0.046 | 1.56 ± 0.087 | 1.62 ± 0.026 | 1.79 ± 0.064
I3L2M1 and related entries (UniProt Q8WYJ6) | 1 ± 0.035 | 0.989 ± 0.017 | 0.941 ± 0.031 | 0.945 ± 0.017 | 0.948 ± 0.022 | 0.928 ± 0.033 | 0.932 ± 0.04 | 0.941 ± 0.033
H0YLE6 and related entries (UniProt Q9NWH9) | 1.01 ± 0.026 | 1 ± 0.05 | 0.961 ± 0.054 | 0.988 ± 0.027 | 0.993 ± 0.038 | 1.11 ± 0.059 | 1.08 ± 0.032 | 1.13 ± 0.033
J3KP06 and related entries (UniProt Q8WWI1) | 0.96 ± 0.033 | 1.19 ± 0.034 | 1.31 ± 0.026 | 1.41 ± 0.07 | 1.57 ± 0.067 | 1.65 ± 0.07 | 1.77 ± 0.057 | 1.96 ± 0.042
I3L0W4 and related entries (UniProt Q96F10) | 1 ± 0.068 | 0.951 ± 0.018 | 0.98 ± 0.13 | 0.932 ± 0.07 | 0.962 ± 0.073 | 0.963 ± 0.064 | 0.94 ± 0.025 | 0.944 ± 0.035
H7C5U8 and related entries (UniProt Q9P0M9) | 0.936 ± 0.26 | 1.03 ± 0.25 | 1.12 ± 0.16 | 0.995 ± 0.22 | 0.923 ± 0.19 | 0.944 ± 0.29 | 0.902 ± 0.19 | 0.894 ± 0.24
J3KTE4 and related entries (UniProt P84098) | 0.948 ± 0.049 | 1.03 ± 0.052 | 1.01 ± 0.053 | 1 ± 0.027 | 0.968 ± 0.07 | 0.966 ± 0.043 | 0.908 ± 0.057 | 1.05 ± 0.094
J3KTD6 and related entries (UniProt Q96GD4) | 1.08 ± 0.077 | 1.29 ± 0.1 | 1.37 ± 0.16 | 1.47 ± 0.18 | 1.6 ± 0.16 | 1.58 ± 0.25 | 1.71 ± 0.032 | 1.76 ± 0.072
K7ELH7 and related entries (UniProt Q8IVV7) | 1.045 ± 0.0085 | 1.05 ± 0.052 | 1.04 ± 0.13 | 0.979 ± 0.11 | 1 ± 0.032 | 0.867 ± 0.075 | 0.931 ± 0.094 | 0.92918 ± 9.2e-06
J9JID7 and related entries (UniProt Q03252) | 0.989 ± 0.029 | 1.03 ± 0.024 | 1 ± 0.066 | 0.943 ± 0.063 | 1.01 ± 0.065 | 1.06 ± 0.037 | 1.03 ± 0.047 | 1.09 ± 0.059
J3KPF0 (UniProt Q9Y4D8) | 1.03 ± 0.045 | 1.04 ± 0.066 | 1.08 ± 0.036 | 1.04 ± 0.068 | 1.05 ± 0.025 | 1.01 ± 0.1 | 1.02 ± 0.08 | 1 ± 0.044
K7ES61 and related entries (UniProt Q9BYD3) | 0.962 ± 0.084 | 0.981 ± 0.12 | 1.02 ± 0.079 | 0.942 ± 0.099 | 0.907 ± 0.091 | 0.827 ± 0.14 | 0.892 ± 0.19 | 0.895 ± 0.17
I3L1H5 and related entries (UniProt Q9BZG8) | 0.949 ± 0.13 | 0.966 ± 0.12 | 0.984 ± 0.17 | 1.03 ± 0.12 | 0.987 ± 0.16 | 0.898 ± 0.12 | 0.987 ± 0.16 | 0.917 ± 0.13
H3BSH7 and related entries (UniProt Q969X6) | 1.16 ± 0.12 | 1.12 ± 0.2 | 1.1 ± 0.14 | 1.21 ± 0.03 | 1.26 ± 0.058 | 1.425 ± 0.0083 | 1.46 ± 0.084 | 1.78 ± 0.047
I3L0H8 and related entries (UniProt Q9NUU7) | 1.03 ± 0.041 | 1.07 ± 0.045 | 1.03 ± 0.02 | 1.03 ± 0.028 | 1 ± 0.03 | 1.02 ± 0.058 | 1.02 ± 0.012 | 1.02 ± 0.013
J3QTA6 and related entries (UniProt Q9BRQ6) | 0.98 ± 0.11 | 0.949 ± 0.072 | 0.958 ± 0.12 | 0.921 ± 0.073 | 0.897 ± 0.087 | 0.925 ± 0.13 | 0.918 ± 0.093 | 0.874 ± 0.067
G5E9W3 and related entries (UniProt Q9UKF6) | 1.02 ± 0.058 | 1.08 ± 0.052 | 1.09 ± 0.073 | 1.1 ± 0.029 | 1.14 ± 0.025 | 1.11 ± 0.048 | 1.14 ± 0.029 | 1.18 ± 0.052
H3BUX2 and related entries (UniProt O43169) | 0.848 ± 0.094 | 0.797 ± 0.17 | 0.964 ± 0.19 | 0.854 ± 0.08 | 0.877 ± 0.06 | 0.865 ± 0.077 | 0.815 ± 0.059 | 0.781 ± 0.084
J3KQ34 and related entries (UniProt Q9H9Q2) | 0.884 ± 0.13 | 0.854 ± 0.11 | 0.89 ± 0.097 | 0.87 ± 0.04 | 0.855 ± 0.072 | 0.873 ± 0.093 | 0.878 ± 0.032 | 0.77 ± 0.1
H7C3Q6 and related entries (UniProt Q8WV92) | 1.25 ± 0.057 | 1.6 ± 0.46 | 1.85 ± 0.55 | 1.9 ± 0.66 | 1.92 ± 0.67 | 1.9 ± 0.76 | 1.97 ± 0.67 | 1.94 ± 0.67
K7ENL9 and related entries (UniProt Q96DM3) | 1.06 ± 0.053 | 1.06 ± 0.058 | 1.04 ± 0.097 | 0.984 ± 0.027 | 1.02 ± 0.029 | 1.02 ± 0.058 | 1.02 ± 0.061 | 0.985 ± 0.03

As a working copy, some entries already given:
Target | NP40-soluble protein abundance (concentration: 0.1mM) | NP40-soluble protein abundance (concentration: 0.5mM) | NP40-soluble protein abundance (concentration: 1mM) | NP40-soluble protein abundance (concentration: 2mM) | NP40-soluble protein abundance (concentration: 4mM) | NP40-soluble protein abundance (concentration: 6mM) | NP40-soluble protein abundance (concentration: 8mM) | NP40-soluble protein abundance (concentration: 10mM)
I3L448 and related entries (UniProt Q5TC12) | 1.01 ± 0.05 | 0.989 ± 0.032 | 0.982 ± 0.049 | 0.985 ± 0.028 | 0.983 ± 0.046 | 0.998 ± 0.04 | 0.96 ± 0.04 | 0.952 ± 0.022
J3KPP4 and related entries (UniProt O95232) | 1.22 ± 0.065 | 1.98 ± 0.17 | 2.04 ± 0.11 | 2.06 ± 0.14 | 2.12 ± 0.1 | 2.32 ± 0.14 | 2.27 ± 0.13 | 2.32 ± 0.18
